Patent US20240034776A1
These are yes or no findings as the source states them, for the method shown. Some entries that bind do so weakly or less than the wild type. Sequences can lack the tags named with a protein.

Protein sequences, listed by entry. Tags and fused reporters are not part of them. Residues count along the entry.
UniProt P07766, residues 23-126: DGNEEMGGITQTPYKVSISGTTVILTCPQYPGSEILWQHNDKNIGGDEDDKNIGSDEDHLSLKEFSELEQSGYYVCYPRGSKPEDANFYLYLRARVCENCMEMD

Tests used:
[1] = biological target: T1, Flag-tagged full-length human ITPRIPL1 (expressed from pcDNA3.1 in transfected cells) (human) (UniProt Q6GPH6); experiment: flow cytometry on HCT116-ITPRIPL1 cells (legend of FIG. 13 and FIG. 14)
T1 sequence: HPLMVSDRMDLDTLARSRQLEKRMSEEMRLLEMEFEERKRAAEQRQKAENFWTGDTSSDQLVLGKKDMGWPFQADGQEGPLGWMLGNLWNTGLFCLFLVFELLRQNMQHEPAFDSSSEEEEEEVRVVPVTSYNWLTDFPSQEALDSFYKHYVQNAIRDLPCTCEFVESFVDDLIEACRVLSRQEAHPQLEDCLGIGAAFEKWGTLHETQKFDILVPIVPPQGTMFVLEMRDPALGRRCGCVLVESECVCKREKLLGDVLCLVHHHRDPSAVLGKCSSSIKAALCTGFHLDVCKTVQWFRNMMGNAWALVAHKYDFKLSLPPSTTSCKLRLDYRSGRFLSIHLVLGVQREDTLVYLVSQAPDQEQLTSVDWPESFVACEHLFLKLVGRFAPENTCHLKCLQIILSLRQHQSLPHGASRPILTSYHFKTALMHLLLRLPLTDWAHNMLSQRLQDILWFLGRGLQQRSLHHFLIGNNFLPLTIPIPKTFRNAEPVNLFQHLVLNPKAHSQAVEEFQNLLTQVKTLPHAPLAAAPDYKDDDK

[2] = biological target: T1, Flag-tagged full-length human ITPRIPL1 (expressed from pcDNA3.1 in transfected cells) (human); experiment: flow cytometry on HCT116-ITPRIPL1 cells, 2 µg/ml CD3E-human Fc

CD3E-human Fc protein (Sino Biological) (from UniProt P07766 23-126) (Fc fusion)
binding [1]: binds | binding [2]: binds
